Experimental data: PubChem BioAssay AID1224830 (NIAID, 2016)
The whole screen tested about 18,000 reagents; this is a part drawn at random. About 2,900 of them (16%) count as active. 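Calls are made per well; low scores hint the gene aids the LPS response, high scores that it dampens it.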 Repeated entries: four replicate wells of each siRNA pool.

- Test: 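Genes whose knock-down alters the TNF-alpha reporter response to LPS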 (primary screen)
- Cell system: human THP-1 monocytic leukaemia cells, TNF dual-luciferase reporter clone, PMA-differentiated to macrophage-like cells
- Reagent: siRNA pool against human genes, 50 nM
- Duration: LPS for 4 h, given about 3 days after siRNA transfection
- Treatment: bacterial LPS (TLR4 ligand), 10 ng/ml
- Detection: 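Ratio of firefly to renilla light, scaled to the plate median and expressed as a robust z-score per replicate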
- Direction: TNF reporter robust z-score: higher = stronger TNF reporter response to LPS
- Active means: 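a well is active when its z-score exceeds 2.8 or falls below -1.5; control wells carry no call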

For TAS2R16, the entry reads TNF reporter robust z-score 1.76; inactive. Depletion of TAS2R16 came out at: TNF reporter robust z-score 2.66; inactive. With knock-down of TAS2R16 the results were TNF reporter robust z-score 1.78; inactive. TAS2R16 gave TNF reporter robust z-score 1.59; inactive. After knock-down of APLF the results were TNF reporter robust z-score 0.13; inactive. Knock-down of APLF came out at: TNF reporter robust z-score -0.85; inactive.

After knock-down of APLF the results were TNF reporter robust z-score -0.37; inactive. For APLF, the values are TNF reporter robust z-score 1.07; inactive. Against HLA-F, the values are TNF reporter robust z-score -0.2; inactive. HLA-F gave TNF reporter robust z-score -0.45; inactive. Depletion of HLA-F gave: TNF reporter robust z-score -0.26; inactive. Against HLA-F the deposit lists TNF reporter robust z-score 0.3; inactive.

With knock-down of PLA2G4A the results were TNF reporter robust z-score -0.93; inactive. With knock-down of PLA2G4A, the screen gave TNF reporter robust z-score -1.05; inactive. Silencing of PLA2G4A came out at: TNF reporter robust z-score -1.17; inactive. Knock-down of PLA2G4A came out at: TNF reporter robust z-score -0.83; inactive. Knock-down of MTFR1L resulted in: TNF reporter robust z-score 2.33; inactive. Against MTFR1L the deposit lists TNF reporter robust z-score 0.62; inactive.

MTFR1L scored TNF reporter robust z-score 0.97; inactive. With knock-down of MTFR1L, the record shows TNF reporter robust z-score 3.04; active. Against KRTCAP2, the values are TNF reporter robust z-score -0.37; inactive. Depletion of KRTCAP2 gave: TNF reporter robust z-score -0.44; inactive. Depletion of KRTCAP2 resulted in: TNF reporter robust z-score -0.48; inactive. Against KRTCAP2, the values are TNF reporter robust z-score -0.24; inactive.

After knock-down of RDH8, the screen gave TNF reporter robust z-score 0.39; inactive. Silencing of RDH8 gave: TNF reporter robust z-score -0.53; inactive. With knock-down of RDH8 the results were TNF reporter robust z-score -0.89; inactive. After knock-down of RDH8, the screen gave TNF reporter robust z-score -1.04; inactive. Silencing of FNBP1L gave: TNF reporter robust z-score 1.97; inactive. For FNBP1L the deposit lists TNF reporter robust z-score 3.88; active.

FNBP1L gave TNF reporter robust z-score 2.8; active. With knock-down of FNBP1L the results were TNF reporter robust z-score 2.64; inactive. CPQ showed TNF reporter robust z-score -1.33; inactive. Against CPQ, the values are TNF reporter robust z-score 0.63; inactive. Depletion of CPQ gave: TNF reporter robust z-score -0.44; inactive. With knock-down of CPQ, the screen gave TNF reporter robust z-score 1.07; inactive.

DMBX1 showed TNF reporter robust z-score -0.58; inactive. With knock-down of DMBX1 the results were TNF reporter robust z-score 0.29; inactive. Silencing of DMBX1 resulted in: TNF reporter robust z-score -0.1; inactive. After knock-down of DMBX1 the results were TNF reporter robust z-score 0.44; inactive. Knock-down of TMEM220 came out at: TNF reporter robust z-score -0.36; inactive. With knock-down of TMEM220, the record shows TNF reporter robust z-score -0.93; inactive.

After knock-down of TMEM220 the results were TNF reporter robust z-score -1.75; active. With knock-down of TMEM220, the screen gave TNF reporter robust z-score -1.49; inactive. Knock-down of PDRG1 resulted in: TNF reporter robust z-score -1.76; active. With knock-down of PDRG1 the results were TNF reporter robust z-score -0.91; inactive. For PDRG1, the values are TNF reporter robust z-score -0.73; inactive. For PDRG1 the deposit lists TNF reporter robust z-score -0.48; inactive.

HRH3 gave TNF reporter robust z-score 0.06; inactive. HRH3 showed TNF reporter robust z-score -0.02; inactive. For HRH3, the values are TNF reporter robust z-score 1.09; inactive. Against HRH3 the deposit lists TNF reporter robust z-score -0.61; inactive. Against ACOT6, the values are TNF reporter robust z-score -0.84; inactive. Silencing of ACOT6 resulted in: TNF reporter robust z-score -0.45; inactive.

For ACOT6 the deposit lists TNF reporter robust z-score -0.69; inactive. After knock-down of ACOT6, the record shows TNF reporter robust z-score -0.61; inactive. Silencing of BBS4 came out at: TNF reporter robust z-score -0.02; inactive. Against BBS4, the entry reads TNF reporter robust z-score 1.79; inactive. For BBS4, the entry reads TNF reporter robust z-score 0.97; inactive. For BBS4, the values are TNF reporter robust z-score 1.69; inactive.

Records listed so far whose gene name begins with T or t (8):
TAS2R16 | TNF reporter robust z-score: 1.76; call: inactive
TAS2R16 | TNF reporter robust z-score: 2.66; call: inactive
TAS2R16 | TNF reporter robust z-score: 1.78; call: inactive
TAS2R16 | TNF reporter robust z-score: 1.59; call: inactive
TMEM220 | TNF reporter robust z-score: -0.36; call: inactive
TMEM220 | TNF reporter robust z-score: -0.93; call: inactive
TMEM220 | TNF reporter robust z-score: -1.75; call: active
TMEM220 | TNF reporter robust z-score: -1.49; call: inactive
